Test results published in the supplement of paper PMC12889115.
The list shows a part of the results. Values are raw readings; no control value is given beside them.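 Primary screen: polymyxin B was added at a level permeabilizing Salmonella outer membranes while sparing inner membranes. DMSO wells, both with and without polymyxin B, established maximum growth. Plate-to-plate variation meant each plate was ranked on its own, and the lowest-OD600 compounds were selected as hits.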

System: Salmonella enterica serovar Typhimurium SL1344
Experiment: bacterial growth OD600 after 18 h with compound and polymyxin B; higher = more bacterial growth (less inhibition)
Settings: 50 µM, Mueller-Hinton broth

| SMILES | bacterial growth OD600 (polymyxin B 1 µg/mL) | bacterial growth OD600 (polymyxin B 0.75 µg/mL) |
| --- | --- | --- |
| COCC(=O)N(C)CC1CCCN(CCc2ccc(F)cc2)C1 (stereo unspecified) | 0.86 | – |
| O=C(c1cnn(-c2ncc3c(n2)-c2ccccc2CC3)c1C1CC1)N1CCN(C2CCCCC2)CC1 | – | 0.744 |
| O=C(c1nc2sccn2c1CNCC1(c2ccccc2)CCOCC1)N1CCCC1 | 1.06 | – |
| COC(C(=O)NCc1nc(-c2ccc(NC(=O)Cc3ccccc3)cc2)oc1C)c1ccccc1 (stereo unspecified) | – | 0.009 |
| CC#CCN1C(=O)NC(CCc2ccccc2)(C2CCN(Cc3ccc4c(c3)CCCN4C)CC2)C1=O (stereo unspecified) | – | 0.799 |
| CCCc1cc(C(=O)NCC2Cc3cc(-c4ccnc(SC)n4)cc(Cl)c3O2)n(C)n1 (stereo unspecified) | – | 0.004 |
| Cc1nc(N2CCCC(C(=O)NCc3cc(F)ccc3F)C2)nc2cc(S(C)(=O)=O)ccc12 (stereo unspecified) | – | 1.03 |
| COc1ccc(NC(=O)CCC2CCN(Cc3ccc(Cl)s3)CC2)c(OC)c1 | 0.939 | – |
| COc1ccc(CN2CCN(Cc3nc(-c4ccccc4)cs3)CC2CCO)cc1C (stereo unspecified) | 0.607 | – |
| CC1(C)CC(CCNC(=O)CCC2(Cc3ccsc3)CCC(=O)N2)(c2ccccc2)CCO1 (stereo unspecified) | – | 0.867 |
| CN(C(=O)CC(c1cccc(O)c1)c1ccccc1Cl)C1CCOCC1 (stereo unspecified) | – | 0.694 |
| CC(C)c1ccc(NC2CCCN(C(=O)C3CCN(C(=O)N(C)C)CC3)C2)cc1 (stereo unspecified) | 0.943 | – |
| O=C(NC1CCCN(CCc2ccccc2)C1)c1cccnc1 (stereo unspecified) | 0.946 | – |
| COc1cccc(O)c1CN1CCC(C(Cc2ccccc2F)N(C)C(=O)c2ccoc2C)CC1 (stereo unspecified) | – | 0.858 |
| COc1ccc(-c2cn3c(C(=O)N4CCN5CCCC5C4)csc3n2)cc1F (stereo unspecified) | – | 0.8 |
| Cc1ccc(CN(C)C(=O)C2CCC(=O)N(CCCN3CCOCC3)C2)o1 (stereo unspecified) | 0.771 | – |

Taken from above.
COCC(=O)N(C)CC1CCCN(CCc2ccc(F)cc2)C1 (stereo unspecified) – bacterial growth OD600 (polymyxin B 1 µg/mL): 0.86
CC(C)c1ccc(NC2CCCN(C(=O)C3CCN(C(=O)N(C)C)CC3)C2)cc1 (stereo unspecified) – bacterial growth OD600 (polymyxin B 1 µg/mL): 0.943

(list continues)

| SMILES | bacterial growth OD600 (polymyxin B 1 µg/mL) | bacterial growth OD600 (polymyxin B 0.75 µg/mL) |
| --- | --- | --- |
| CCOC(=O)C1(Cc2cccc(Cl)c2)CCCN(C(=O)CCCn2cncn2)C1 (stereo unspecified) | – | 0.703 |
| Fc1ccccc1CN1CCCC(NC2CSCCSC2)C1 (stereo unspecified) | – | 0.748 |
| CS(=O)(=O)N1CCC(Oc2ccccc2C(=O)NCCCn2cccn2)CC1 | 0.887 | – |
| O=C(CSc1ccccc1)NC1CC(=O)N(Cc2cccc(F)c2)C1 (stereo unspecified) | 0.991 | – |
| CN(CCc1ccccc1)Cc1cc(C(=O)N2CCCC2)no1 | 1.26 | – |
| CCO[C@H]1[C@H](NC(=O)c2cccnc2)c2ccccc2C12CCN(C(=O)CCN1CCCO1)CC2 | – | 0.844 |
| Cc1ccc(CN2CCN(C(=O)c3cn(Cc4ccccc4F)nn3)CC2=O)cc1 | 0.977 | – |
| Cc1ccccc1C1(CC(=O)N2CCN(C(C)C)CC2)CC(=O)N(Cc2ccncc2)C1=O (stereo unspecified) | – | 0.821 |
| COC(=O)CC(NC(=O)c1csc2nc(-c3ccccc3)cn12)C(=O)OC (stereo unspecified) | 0.807 | – |
| O=C(CC(c1ccccc1)c1ccc2c(c1)OCO2)NCc1cnc2ccccn12 (stereo unspecified) | – | 0.924 |
| O=C(NC1CCCN(c2ncccn2)C1)c1cn2ccccc2n1 (stereo unspecified) | – | 0.981 |
| CCOC(=O)CCNC(=O)[C@H]1C[C@@H](C(=O)OC)N(C)[C@H]1c1cccc(F)c1F | – | 0.828 |
| O=C(c1cnc[nH]1)N1CCC(C2CCN(Cc3ccc(Cl)cc3)C2)CC1 (stereo unspecified) | – | 0.83 |
| O=C(NCCc1ccccn1)c1ccc(OC2CCN(C(=O)C3CC3)CC2)cc1 | -0.01 | – |
| O=C(Cc1cccs1)N1CCC(C2(c3ccccn3)NC(=O)N(CC3CCCO3)C2=O)CC1 (stereo unspecified) | – | 0.921 |
